Literature values, collected in patent publication US10421768B2, “Method of biotransformation of benzopyrone compounds into the corresponding phosphate-conjugated derivatives” (National Taiwan University, priority 2016, dated 2019).
Some entries share one result that the patent states for a list of compounds.

Conditions: in water; stated in text without method; cited from earlier work

Structure (SMILES)	solubility
O=c1cc(-c2ccc(O)cc2)oc2cc(O)cc(O)c12 [apigenin]	less than 2.2 μg/mL
O=c1cc(-c2ccccc2)oc2ccc(O)cc12 [6-hydroxyflavone]	less than 2.2 μg/mL
COc1cc(C2Oc3cc([C@H]4Oc5cc(O)cc(O)c5C(=O)[C@@H]4O)ccc3OC2CO)ccc1O (stereo partly shown) [silibinin]	less than 40 μg/mL
O=c1oc2cc(O)ccc2c2ccc(O)cc12 [Urolithin A, urolithin A]	less than 40 μg/mL
